Experimental findings from the supplement of paper PMC12578635 are described below.

This is one part of the list. Rule as the data show it: active = 150% or more and inactive = the rest. Single values are uncertain, as repeats are few or missing.

The assay deals with Staphylococcus aureus JE2-lux inside RAW 264.7 macrophages. Kind of assay: intracellular bacterial bioluminescence relative to DMSO vehicle; higher = higher intracellular bacterial metabolic activity. Conditions: 10 µM; treatment time 4 h; gentamicin 50 µg/ml.
Regarding `N#CC1=C(SCC(=O)Nc2ccc(Br)cc2)NC(=O)CC1c1ccc2c(c1)OCO2` (stereo unspecified), the intracellular bacterial bioluminescence is inactive: 82.4%. The same measure for `O=C(CN(C(=O)c1csnn1)c1cnc2ccccc2c1)NCc1ccc(F)cc1`: inactive: 66.2%; for `CC(=O)Nc1c(-c2ccc(Cl)cc2)c(C)nn1-c1ccc(C(=O)Nc2nccs2)cc1`: inactive: 72.1%. In the case of `Cn1c(=O)c2c(nc(SCC(=O)Nc3sc4c(c3C#N)CCCC4)n2C)n(C)c1=O` it was inactive: 91.6%; in that of `Cc1cc(F)ccc1NC(=O)Cn1cccc1-c1nc(-c2ccccc2)cs1`, inactive: 92.2%; in that of `O=C(O)CC1SC(=O)N(c2ccccc2)C1=O` (stereo unspecified), inactive: 110%. The same measure for `O=C(Cn1c(=O)c2ccccc2n2nncc12)NCc1ccccc1Cl`: inactive: 56%; for `Clc1ccc(C2C=C(c3ccco3)Nc3ncnn32)cc1` (stereo unspecified): inactive: 94.1%; for `Cc1ccc2c(c1)C1CC(C)(O2)N(c2ccc(C(=O)O)cc2)C(=O)N1` (stereo unspecified): inactive: 115%. For `COc1ccc(-c2ccnc3[nH]n(-c4nc(C)cc(C)n4)c(=O)c23)cc1`, the intracellular bacterial bioluminescence is inactive: 103%.

As for `CCOC(=O)c1cc(C)nc2c1c(=O)n(Cc1ccccc1Cl)c(=O)n2C`, the intracellular bacterial bioluminescence was inactive: 124%. In the case of `COc1cccc(NC(=O)CCc2c(C)[nH]c3nc(NCc4ccccc4)nn3c2=O)c1` it was inactive: 115%. In the case of `NC(=O)CCSc1nnc(SCC(=O)c2ccccc2)s1` it was inactive: 74%. In the case of `Cn1nc(C(C)(C)C)cc1C(=O)Nc1ccccc1NC(=O)c1ccccn1` it was inactive: 73.9%; in that of `Cc1nc(Nc2ccc(NC(=O)c3ccc4c(c3)OCO4)cc2)cc(N(C)C)n1`, inactive: 91%; in that of `Cc1ccc(Cc2cnc(NC(=O)c3cc4ccccc4c(=O)o3)s2)cc1`, inactive: 91.3%. For `O=C(NC1CCN(C(=O)Nc2cccc(Cl)c2)CC1)c1ccccc1`, the intracellular bacterial bioluminescence is inactive: 108%.

As to `N#Cc1ccc(C(=O)N(CCN2CCOCC2)c2nc3ccccc3s2)cc1`, the intracellular bacterial bioluminescence was inactive: 116%. The same measure for `O=C(CSc1nc(O)c2nc[nH]c2n1)OCc1ccccc1`: inactive: 114%; for `Cc1ccc(N(Cc2ccc3c(c2)CN(S(=O)(=O)c2cccc(C)c2)CCO3)C(=O)C(C)C)cc1`: inactive: 41.2%.

In the case of `COc1ccc(-c2noc(N3CCC(C(=O)N4CCN(c5cc(Cl)ccc5C)CC4)CC3)n2)cc1`, the intracellular bacterial bioluminescence was inactive: 124%. The same measure for `Cc1ccc2cc(C#N)c(N3CCN(C(=O)c4ccc(F)cc4)CC3)nc2c1`: inactive: 101%; for `COc1ccccc1CNC(=O)c1sc2nc(C)nc(N3CCCC3)c2c1C`: inactive: 64.6%; for `Cc1cc(C)c2cc(CN(Cc3ccc4c(c3)OCO4)C(=O)c3ccco3)c(Cl)nc2c1`: inactive: 92.9%. `CCN(Cc1ccccc1)c1ncnc2c1cnn2-c1cccc(Cl)c1`: the intracellular bacterial bioluminescence is inactive: 70.3%.

For `Cc1ccc2cc(C)c3nn(CCNC(=O)Cc4c(C)nc(C)nc4O)c(=O)n3c2c1`, the intracellular bacterial bioluminescence was inactive: 101%. The same measure for `CCc1ccc2c(c1)C(O)(C1SC(N)=NC1=O)C(=O)N2` (stereo unspecified): inactive: 92.3%; for `Cc1cccn2c(=O)c3cc(S(=O)(=O)c4ccc(Cl)cc4)c(=N)n(Cc4ccncc4)c3nc12`: inactive: 115%.

As to `Cc1ccc(C)c2sc(N(Cc3ccccn3)C(=O)c3cccc(S(C)(=O)=O)c3)nc12`, the intracellular bacterial bioluminescence was inactive: 115%.

As for `COc1ccc(OC)c2[nH]c(=O)c(CCN3C(=O)c4ccccc4C3=O)cc12`, the intracellular bacterial bioluminescence is inactive: 116%. In the case of `Cc1cccc(-c2noc(C)c2C(=O)NCCn2ccnc2C)c1`, the intracellular bacterial bioluminescence is inactive: 116%. With `O=C(NCc1ccccn1)C(=O)NCC(c1ccco1)N1CCc2ccccc21` (stereo unspecified), the intracellular bacterial bioluminescence was inactive: 90%.

As for `O=S(=O)(c1ccc(Cl)cc1)c1nnn2c1nc(NCc1ccc3c(c1)OCO3)c1sccc12`, the intracellular bacterial bioluminescence is inactive: 112%. In the case of `COc1cccc(-c2cc(=O)n3c4ccccc4n(CC(=O)NC4CCCC4)c3n2)c1`, the intracellular bacterial bioluminescence was inactive: 110%.

Take `O=C(Nc1ccccc1-c1ccccc1)N1CCC(c2nc3ccccc3o2)CC1`: the intracellular bacterial bioluminescence was inactive: 82.3%.

Consider `COCCNc1nc(-c2nnc(-c3cccc(C)c3)o2)nc2ccccc12`, for which the intracellular bacterial bioluminescence was inactive: 55.9%. In the case of `c1ccc(CN2CCN(c3ncnc4[nH]cnc34)CC2)cc1` it was inactive: 96.3%; in that of `Cn1c(CCC(=O)NC(c2ccccc2)c2cccnc2)nc2ccccc21` (stereo unspecified), inactive: 113%; in that of `Cc1[nH]c2ccccc2c1C(Nc1ccccn1)c1cccs1` (stereo unspecified), inactive: 93.3%. `COc1ccccc1N1CCN(c2nc(C)c(CCC(C)C)c(=O)[nH]2)CC1`: the intracellular bacterial bioluminescence was inactive: 102%. The same measure for `Cc1cccc(-c2nc3c(c(SCC(=O)N4CCOCC4)n2)Cc2c(CO)cnc(C)c2O3)c1`: inactive: 105%; for `Cc1ccc(Nc2cc(N3CCN(C(=O)c4cccs4)CC3)nc(C)n2)cc1`: inactive: 34.7%.

With `O=C(Cn1cnc2c(cnn2CCO)c1=O)N1CCC(Cc2ccccc2)CC1`, the intracellular bacterial bioluminescence was inactive: 121%. As to `COc1ccc(Cl)cc1C(=O)Nn1cnc2c(cnn2-c2ccccc2)c1=O`, the intracellular bacterial bioluminescence is inactive: 124%. Take `COC(=O)C1=C(C)OC(N)=C(C#N)C1c1ccc(OC)cc1` (stereo unspecified): the intracellular bacterial bioluminescence was inactive: 107%.

For the compound `CCOc1ccc(-c2cccc(NC(=O)c3ccco3)c2)nn1`, the intracellular bacterial bioluminescence was inactive: 77.5%. In the case of `Cc1cc2oc(=O)cc(-c3cc4ccccc4o3)c2cc1O` it was inactive: 123%; in that of `O=C(O)CSc1nnc2c(n1)[nH]c1cccc(C(F)(F)F)c12`, inactive: 112%; in that of `CC(C)CCNC(=O)Nc1c(-c2ccncc2)[nH]c2c(Cl)cccc12`, inactive: 81.6%. In the case of `NC(=O)c1oc2ccccc2c1NC(=O)Cc1ccc([N+](=O)[O-])cc1` it was inactive: 95.9%. Consider `C#CCn1/c(=N/C(=O)c2cccc(S(C)(=O)=O)c2)sc2cc(C)c(C)cc21`, for which the intracellular bacterial bioluminescence was inactive: 100%. `Cn1nc(C2CC2)cc1C(=O)Nc1cccc(-c2csnn2)c1`: the intracellular bacterial bioluminescence was inactive: 85.1%. The same measure for `CC1=C(C(=O)Nc2ccccc2C)C(c2ccccc2)NC(=O)N1` (stereo unspecified): inactive: 104%. The same measure for `O=C(CSc1nc(-c2ccccc2)cc(=O)[nH]1)NCc1ccc(F)cc1`: inactive: 110%. The same measure for `CN1C(=O)c2cccc(NC(=O)c3cc(-c4cccs4)nc4ccccc34)c2C1=O`: inactive: 136%; for `CC(C)(C)c1cc(Br)ccc1OCC(=O)Nc1nnc[nH]1`: inactive: 112%; for `Cc1[nH]c2ccccc2c1CCNC(=O)c1ccc2nccnc2c1`: inactive: 115%. As for `CCc1cc2cc3c(cc2n2c(=O)n(Cc4cscn4)nc12)OCO3`, the intracellular bacterial bioluminescence is inactive: 115%. Take `Cc1cc(N2CCC(C(=O)Nc3cccc4ccccc34)CC2)n2ncnc2n1`: the intracellular bacterial bioluminescence was inactive: 101%. The same measure for `COc1cc(C)c(S(=O)(=O)Nc2cccc(-n3c(C)nc4ccccc4c3=O)c2)cc1C`: inactive: 110%. The same measure for `CC(C)N1C(=O)/C(=C2/C(=O)N(CC(=O)Nc3ccccc3F)c3ccccc32)SC1=S`: inactive: 88.7%; for `CC(=O)NNC(=O)CSc1nc2sc3c(c2c(=O)[nH]1)CCC(C(C)(C)C)C3` (stereo unspecified): inactive: 81.7%; for `CCOc1ccc(OCC)c(NS(=O)(=O)c2ccc3onc(C(=O)N4CCCC4)c3c2)c1`: inactive: 48.8%. For the compound `COc1cccc(-c2csc(/C(C#N)=C\Nc3ccc([N+](=O)[O-])cc3)n2)c1`, the intracellular bacterial bioluminescence was inactive: 110%. As to `CC(=O)Nc1ccc2nc(C)n(CC(=O)Nc3ccc(F)cc3)c(=O)c2c1`, the intracellular bacterial bioluminescence was inactive: 96.4%. In the case of `COc1cccc(NC(=O)CSc2nnc3ccccn23)c1` it was inactive: 80.7%; in that of `COc1ccc(CCNC(=O)CSc2nc3sc4c(c3c(=O)[nH]2)CCC4)cc1OC`, inactive: 67.5%; in that of `CCn1cccc1-c1nc(C)c(C(=O)Nc2cc(C)cc(C)c2)s1`, inactive: 38.2%. In the case of `COC(=O)c1cccc(Oc2nnc(-c3ccc(F)cc3)c3ccccc23)c1` it was inactive: 22.3%. Turning to `CCOc1ccc2[nH]c(=O)c(CN(Cc3cccnc3)C(=O)Nc3ccccc3F)cc2c1`, the intracellular bacterial bioluminescence is inactive: 103%. In the case of `Fc1ccc(-c2csc3ncnc(NCC4CCCO4)c23)cc1` (stereo unspecified) it was inactive: 66.5%.

As to `C=CCn1/c(=N/C(=O)CSCC(=O)N2CCN(C(=O)OCC)CC2)sc2cc(Cl)ccc21`, the intracellular bacterial bioluminescence is inactive: 45.8%.

For `Cc1c(-c2n[nH]c(=S)n2C)sc2nc3n(c(=O)c12)CCC3`, the intracellular bacterial bioluminescence is inactive: 116%.

In the case of `Cc1nc2sc(C(c3cccs3)N3CCN(CCO)CC3)c(O)n2n1` (stereo unspecified), the intracellular bacterial bioluminescence is inactive: 85.2%.

Regarding `CCn1nc(C)c(C(=O)NCCn2nc3c(C)cc4ccc(C)cc4n3c2=O)c1C`, the intracellular bacterial bioluminescence is inactive: 101%.

With `COc1ccc(NC(=O)CSc2nc(=O)n(CCN3CCOCC3)c3c2CCC3)cc1OC`, the intracellular bacterial bioluminescence is inactive: 46.5%.

With `CCOC(=O)c1ccccc1NC(=O)/C=C1/Nc2ccccc2NC1=O`, the intracellular bacterial bioluminescence is inactive: 88.7%. The same measure for `COc1ccc(NC(=S)N2CCC(n3cnc4ccccc43)CC2)c(OC)c1`: inactive: 110%; for `O=C(O)CCN1C(=O)/C(=C/c2cc([N+](=O)[O-])ccc2OCc2ccccc2Cl)SC1=S`: inactive: 111%; for `O=C(Nc1cc(Cl)cc(Cl)c1)c1ccc(S(=O)(=O)N2CCCCCC2)cc1`: inactive: 99.8%.

For `O=C(NCc1ccc2[nH]c3c(c2c1)CCCC3)NC1CCCCC1`, the intracellular bacterial bioluminescence is inactive: 88.5%.

`O=C1c2oc3ccc(Cl)cc3c(=O)c2C(c2ccncc2)N1CCc1ccccc1` (stereo unspecified): the intracellular bacterial bioluminescence is inactive: 83.1%. In the case of `FC(F)(F)c1cccc(CSc2ncnc3ccccc23)c1` it was inactive: 69.1%. The same measure for `CC(=O)c1ccc(NC(=O)CSc2nc(C)cc(C)c2C#N)cc1`: inactive: 31.1%. On to `COc1c(C(=O)NC2CCCOC2)cnc2cc(Cl)ccc12` (stereo unspecified), for which the intracellular bacterial bioluminescence is inactive: 63.7%. The same measure for `O=C1OCCC1Sc1nc2ccccc2c(=O)[nH]1` (stereo unspecified): inactive: 120%; for `CCOCCn1ccc2c(OCC(=O)NCCc3ccc(OC)c(OC)c3)cccc2c1=O`: inactive: 120%; for `O=C(CC1NC(=O)NC1=O)Nc1ccc(F)cc1` (stereo unspecified): inactive: 97.9%. For `CCOc1ccc(NC(=O)CCn2c(=S)[nH]c3ccccc3c2=O)cc1`, the intracellular bacterial bioluminescence is inactive: 109%. In the case of `CCCSc1nc2c(c(=O)[nH]1)C(c1ccc(Cl)cc1)C1=C(CCCC1=O)N2` (stereo unspecified) it was inactive: 96.2%. In the case of `O=C(NCC(c1ccco1)N1CCc2ccccc21)C(=O)Nc1ccc([N+](=O)[O-])cc1` (stereo unspecified) it was inactive: 100%.
